Results reported in US20240019450A1, “FLUORESCENT SENSORS” (THE UNIVERSITY OF SYDNEY, priority 2020, published 2024).

Test: Fluorescence sensor array on spiked human plasma samples (LDA)
Conditions: for classification accuracy: 14 optimised instrument variables, all concentrations tested; for classification accuracy / correct classification: spiked human plasma; for correct classification: 21 measurements (six sensors at 4 excitation wavelengths); for LDA classification, cross-validated / LDA correct classification: six sensors, four concentrations 0.5-5 μM in spiked human plasma

SMILES | classification accuracy [%] | correct classification [%] | LDA classification, cross-validated [%] | LDA correct classification [%]
O=C1[O][Pt]2([NH][C@@H]3CCCC[C@H]3[NH]2)[O]C1=O [oxaliplatin] | 100 | 100 | 30 | 80
N.N.[Cl][Pt][Cl] [cisplatin] | 100 | 100 | 32 | 79
